Laboratory results as given in PMC9591056, “Inhibitors of ApiAP2 protein DNA binding exhibit multistage activity against Plasmodium parasites” (PLOS Pathogens, 2022).
Negatives hold for the conditions tested. For at least one entry, the source does not settle the construct or the ends of the probe. At least one verdict was read from the data and is not stated in words by the source.

Sequences of proteins named here, by UniProt entry; tags and fusion partners are left off. A change or cut given only in a name is not applied to a line headed by its entry. Residues count along the entry.
UniProt P48431: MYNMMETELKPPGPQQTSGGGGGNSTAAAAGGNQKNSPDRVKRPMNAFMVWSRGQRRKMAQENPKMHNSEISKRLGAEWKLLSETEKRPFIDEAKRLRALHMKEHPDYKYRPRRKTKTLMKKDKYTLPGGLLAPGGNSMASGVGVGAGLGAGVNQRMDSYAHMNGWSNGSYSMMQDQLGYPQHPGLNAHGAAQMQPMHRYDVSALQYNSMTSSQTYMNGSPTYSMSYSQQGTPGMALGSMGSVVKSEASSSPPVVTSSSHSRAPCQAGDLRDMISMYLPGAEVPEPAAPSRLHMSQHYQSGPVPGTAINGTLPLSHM
UniProt O80337, 147-205: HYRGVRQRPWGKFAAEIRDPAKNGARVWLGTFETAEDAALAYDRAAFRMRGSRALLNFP

What was measured:
SOX2 (human) = SOX2 (human) (UniProt P48431); test: EMSA; details: EMSA: 10 mM Tris pH 7.5, 50 mM KCl, 1 mM DTT, 6 mM MgCl2, 60 ng/uL poly dIdC, 65 ng BSA, 125 ng AP2-EXP or PbAP2-Sp, 40-150 fmol probe, 15 min protein + compound, commercial protein, residues 1-317, label: 5' biotin on forward strand
[1] = molecular target: AtERF1 AP2/ERF domain (Arabidopsis thaliana) (UniProt O80337); test: EMSA; details: EMSA: 10 mM Tris pH 7.5, 50 mM KCl, 1 mM DTT, 6 mM MgCl2, 60 ng/uL poly dIdC, 65 ng BSA, 125 ng AP2-EXP or PbAP2-Sp, 40-150 fmol probe, 15 min protein + compound, recombinant protein, label: 5' biotin on forward strand

Sequence | binding result (SOX2 (human); 300 uM Compound A) | binding result (SOX2 (human); 300 uM Compound B) | binding result (SOX2 (human); 300 uM Compound C) | binding result (SOX2 (human)) | binding result ([1]; 300 uM Compound I) | binding result [1]
CGGAGAAACTTCTAGAACAATGGTGAAGACGGGGATC (double strand) [SOX2 gel shift probe] | no binding | binds | binds | binds |  | 
TTTAACTTTAATTATGAATATGAGGCGGCGGGTTCGTGATCAAC (double strand) [AtERF1 gel shift probe] |  |  |  |  | no binding | binds
